Data as given in PubChem BioAssay AID1508597 (Cure First, 2020)
Assay: 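Genes whose silencing sensitises or protects ovarian cancer cells against rucaparib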 (primary screen). Cell system: human ovarian carcinoma lines grown from tumours: OCI-P5x (papillary serous) and OCI-C5x (clear cell). Knock-down reagent: siRNA pool against human genes, 1.25 pmol siRNA per well. Timing: 72 h or 96 h, depending on the cell culture. Conditions: rucaparib 20 µM (about IC30) or vehicle, present until read-out. Rucaparib or vehicle: Vehicle. Cell line: OCI-P5x (serous). Measurement: 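ATP luminescence measured at 72 or 96 h according to the culture, then normalised and expressed as percent viability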. Direction: viability, normalised: higher = more viable cells remaining. Call rule: 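Active when normalised viability falls below 80 percent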. Meaning of the calls: active = viability under 80%; inactive = viability 80% or more.
Shown is a random part of the about 2,100 reagents, under one of the conditions tested. 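Calls flag viability under 80% in either arm, not effects specific to rucaparib; the reference for percent is not stated.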 Not stated in the record: the 100% reference.

{"gene": "ATF7IP2 (activating transcription factor 7 interacting protein 2)", "technical replicate": "1", "viability, normalised (%)": 54.8, "outcome": "active"}
{"gene": "ATF7IP2 (activating transcription factor 7 interacting protein 2)", "technical replicate": "2", "viability, normalised (%)": 71.9, "outcome": "active"}
{"gene": "ATF7IP2 (activating transcription factor 7 interacting protein 2)", "technical replicate": "3", "viability, normalised (%)": 81.2, "outcome": "inactive"}
{"gene": "STK10 (serine/threonine kinase 10)", "technical replicate": "1", "viability, normalised (%)": 43.9, "outcome": "active"}
{"gene": "STK10 (serine/threonine kinase 10)", "technical replicate": "2", "viability, normalised (%)": 45.1, "outcome": "active"}
{"gene": "STK10 (serine/threonine kinase 10)", "technical replicate": "3", "viability, normalised (%)": 58.3, "outcome": "active"}
{"gene": "PHF21B (PHD finger protein 21B)", "technical replicate": "1", "viability, normalised (%)": 65.3, "outcome": "active"}
{"gene": "PHF21B (PHD finger protein 21B)", "technical replicate": "2", "viability, normalised (%)": 68, "outcome": "active"}
{"gene": "PHF21B (PHD finger protein 21B)", "technical replicate": "3", "viability, normalised (%)": 89.6, "outcome": "inactive"}
{"gene": "ARX (aristaless related homeobox)", "technical replicate": "1", "viability, normalised (%)": 46.9, "outcome": "active"}
{"gene": "ARX (aristaless related homeobox)", "technical replicate": "2", "viability, normalised (%)": 77.3, "outcome": "active"}
{"gene": "ARX (aristaless related homeobox)", "technical replicate": "3", "viability, normalised (%)": 71.2, "outcome": "active"}
{"gene": "USP22 (ubiquitin specific peptidase 22)", "technical replicate": "1", "viability, normalised (%)": 66.4, "outcome": "active"}
{"gene": "USP22 (ubiquitin specific peptidase 22)", "technical replicate": "2", "viability, normalised (%)": 71.6, "outcome": "active"}
{"gene": "USP22 (ubiquitin specific peptidase 22)", "technical replicate": "3", "viability, normalised (%)": 65.9, "outcome": "active"}
{"gene": "ATF7IP (activating transcription factor 7 interacting protein)", "technical replicate": "1", "viability, normalised (%)": 59.8, "outcome": "active"}
{"gene": "ATF7IP (activating transcription factor 7 interacting protein)", "technical replicate": "2", "viability, normalised (%)": 68.3, "outcome": "active"}
{"gene": "ATF7IP (activating transcription factor 7 interacting protein)", "technical replicate": "3", "viability, normalised (%)": 79.3, "outcome": "active"}
{"gene": "MIER2 (MIER family member 2)", "technical replicate": "1", "viability, normalised (%)": 68.6, "outcome": "active"}
{"gene": "MIER2 (MIER family member 2)", "technical replicate": "2", "viability, normalised (%)": 62.9, "outcome": "active"}
{"gene": "MIER2 (MIER family member 2)", "technical replicate": "3", "viability, normalised (%)": 46.9, "outcome": "active"}
{"gene": "DHX35 (DEAH-box helicase 35)", "technical replicate": "1", "viability, normalised (%)": 52.5, "outcome": "active"}
{"gene": "DHX35 (DEAH-box helicase 35)", "technical replicate": "2", "viability, normalised (%)": 65.2, "outcome": "active"}
{"gene": "DHX35 (DEAH-box helicase 35)", "technical replicate": "3", "viability, normalised (%)": 54.5, "outcome": "active"}
{"gene": "INO80C (INO80 complex subunit C)", "technical replicate": "1", "viability, normalised (%)": 68.8, "outcome": "active"}
{"gene": "INO80C (INO80 complex subunit C)", "technical replicate": "2", "viability, normalised (%)": 83.6, "outcome": "inactive"}
{"gene": "INO80C (INO80 complex subunit C)", "technical replicate": "3", "viability, normalised (%)": 78.6, "outcome": "active"}
{"gene": "TRIM68 (tripartite motif containing 68)", "technical replicate": "1", "viability, normalised (%)": 65.4, "outcome": "active"}
{"gene": "TRIM68 (tripartite motif containing 68)", "technical replicate": "2", "viability, normalised (%)": 79.1, "outcome": "active"}
{"gene": "TRIM68 (tripartite motif containing 68)", "technical replicate": "3", "viability, normalised (%)": 78.9, "outcome": "active"}
{"gene": "SH3KBP1 (SH3 domain containing kinase binding protein 1)", "technical replicate": "1", "viability, normalised (%)": 70, "outcome": "active"}
{"gene": "SH3KBP1 (SH3 domain containing kinase binding protein 1)", "technical replicate": "2", "viability, normalised (%)": 67.3, "outcome": "active"}
{"gene": "SH3KBP1 (SH3 domain containing kinase binding protein 1)", "technical replicate": "3", "viability, normalised (%)": 89.8, "outcome": "inactive"}
